Assay results as given in PubChem BioAssay AID1671190 (National Center for Advancing Translational Sciences (NCATS), 2021).
Where “and” joins values, the source holds several entries; their conditions need not be identical. Identical values can stand only once. Hit rate of the full screen: of about 580,000 compounds, about 6,100 (1.1%) were called active. The inconclusive results got no clear call from the source; some entries with a clear call stand among them for comparison. Calls come from the whole dose curve; as a rule, active = well fitted inhibition curve with a large enough effect; inconclusive = small, poorly fitted or top-dose-only effect, or another doubt; inactive = no such curve, though single readings can be large or run the other way. A potency beside an inconclusive call is a rough fit, not a confirmed value.

Amino acid sequences for entries named in this document (tags omitted).
UniProt P18054, whole entry, looked up: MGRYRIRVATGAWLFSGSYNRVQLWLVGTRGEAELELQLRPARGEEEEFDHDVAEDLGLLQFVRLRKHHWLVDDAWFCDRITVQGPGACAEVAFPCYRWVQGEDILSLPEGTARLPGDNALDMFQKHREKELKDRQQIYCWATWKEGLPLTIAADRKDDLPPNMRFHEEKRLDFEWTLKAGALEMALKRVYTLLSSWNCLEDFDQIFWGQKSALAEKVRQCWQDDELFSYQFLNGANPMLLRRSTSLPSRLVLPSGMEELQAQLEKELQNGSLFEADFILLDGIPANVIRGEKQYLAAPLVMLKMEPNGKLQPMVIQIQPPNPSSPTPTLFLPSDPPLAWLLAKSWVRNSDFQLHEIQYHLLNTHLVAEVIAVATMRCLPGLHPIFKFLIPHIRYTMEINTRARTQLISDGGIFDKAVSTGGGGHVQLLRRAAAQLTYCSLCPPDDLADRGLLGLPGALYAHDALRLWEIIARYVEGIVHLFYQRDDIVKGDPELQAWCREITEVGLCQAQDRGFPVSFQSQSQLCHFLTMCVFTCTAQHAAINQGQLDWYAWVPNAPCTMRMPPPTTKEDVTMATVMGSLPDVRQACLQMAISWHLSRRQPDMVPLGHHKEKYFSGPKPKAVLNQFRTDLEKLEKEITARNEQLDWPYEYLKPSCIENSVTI

Target: Polyunsaturated fatty acid lipoxygenase ALOX12 (Homo sapiens) (UniProt P18054)
Experiment: Primary qHTS assay for inhibitors of human arachidonate 12S-lipoxygenase (ALOX12): Round 2
Conditions: purified 12hLO, xylenol orange hydroperoxide absorbance; activity change, negative = inhibition: at 108 µM (top of the series) unless noted
Summary of the method: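 Purified human 12hLO (150 nM final) in 25 mM Hepes, 0.01% Triton X-100, pH 7.0 was preincubated 15 min at room temperature with compound. Then 40 uM arachidonic acid was added, 30 min. Hydroperoxide was read by Fe-XO absorbance ratio 573/405 nm.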
% is set by controls: 0 for no effect and ±100 for the full control effect; potency is the fitted concentration of half-maximal effect.

**Q.** Which Potency does the source give for `CCOC(=O)C1C(C#N)=C(N)OC(C)=C1c1ccncc1` (centres undefined) here?
**A.** inconclusive: 39.8 µM [inhibitor, single point]

**Q.** For `COC(=O)C(C)Sc1nnc(Nc2ccccc2F)s1` (centres undefined), which Potency is on record?
**A.** inconclusive: 2.24 µM [inhibitor, full curve, poor fit]

**Q.** For `Cc1ccc(S(=O)(=O)NC(=O)c2ccc(F)cc2)c(C)c1`, which Potency is on record?
**A.** inconclusive: 35.5 µM [inhibitor, partial curve, poor fit]

**Q.** How did the Potency turn out when `COc1ccc(-c2cn(C)c(=O)n3cc(COc4ccnn4C)nc23)cc1OC` was run?
**A.** inconclusive: 14.1 µM [inhibitor, full curve, poor fit]

**Q.** For `CCOC(=O)C1(CC2CC2)CCN(S(=O)(=O)/C=C/c2ccccc2)CC1`, which Potency is on record?
**A.** inconclusive: 50.1 µM [inhibitor, partial curve, poor fit]

**Q.** How did the “activity change, negative = inhibition” value turn out when `CCn1cnnc1-c1nn(C)c2c1CN(C(=O)CN1CCCCCC1)CC2` was run?
**A.** inactive: 56.6%

**Q.** `Oc1ccc2cc(Br)ccc2c1CN1CCCC1` was tested. Which Potency did it give?
**A.** inconclusive: 11.2 µM [inhibitor, partial curve, poor fit]

**Q.** Which “activity change, negative = inhibition” value does the source give for `N#Cc1ccc(C(=O)NC2CCSc3ccccc32)cc1` (centres undefined) here?
**A.** inactive: 30.1%

**Q.** Which Potency does the source give for `Cc1ccccc1-c1nc2cc(Cl)ccc2c(=O)o1` here?
**A.** inconclusive: 0.316 µM [inhibitor, full curve, poor fit]

**Q.** How did the “activity change, negative = inhibition” value turn out when `CC(/C=N/NC(=O)Cn1cnc2c1c(=O)n(C)c(=O)n2C)=C\c1ccco1` was run?
**A.** inactive: -11.2%

**Q.** How did the “activity change, negative = inhibition” value turn out when `O=C1OCCC1Sc1nnc(-c2ccc3c(c2)OCO3)n1-c1ccccc1` (centres undefined) was run?
**A.** inactive: 9.67%

**Q.** Which “activity change, negative = inhibition” value does the source give for `Cc1c(C(=O)O)cccc1-c1ccc(/C=C2\SC(=O)NC2=O)o1` here?
**A.** inactive: -17.5%

**Q.** How did the Potency turn out when `CN1CCN(C(=O)C2CCCN(S(=O)(=O)c3ccc(Cl)cc3)C2)CC1` (centres undefined) was run?
**A.** inconclusive: 3.55 µM [inhibitor, full curve, poor fit]

**Q.** With `CCNC(=O)Cc1ccc(N(Cc2ccccc2)C(=O)c2ccco2)cc1` as the molecule, how does the “activity change, negative = inhibition” value read?
**A.** inactive: 2.57%

**Q.** `C=C(Cl)COc1ccc2c(CC)cc(=O)oc2c1` was tested. Which “activity change, negative = inhibition” value did it give?
**A.** inactive: 1.67%

**Q.** Which “activity change, negative = inhibition” value does the source give for `COC(=O)NCc1cccc(Br)c1` here?
**A.** inactive: 58.5%

**Q.** `CC(C)CCC(=O)NCCCNC(=O)c1cccs1` was tested. Which Potency did it give?
**A.** inconclusive: 11.2 µM [inhibitor, full curve, poor fit]

**Q.** For `Cc1nnc(SCC(=O)Nc2ccc(Cl)cn2)n1Cc1ccccc1`, which Potency is on record?
**A.** inconclusive: 12.6 µM [inhibitor, full curve]

**Q.** How did the Potency turn out when `CCCCC(CC)CNC(=S)NCc1ccc(C)cc1` (centres undefined) was run?
**A.** active: 31.6 µM

**Q.** Which Potency does the source give for `CCCC(CCC)C(=O)Nc1ccccc1` here?
**A.** inconclusive: 56.2 µM [inhibitor, partial curve, poor fit]

**Q.** For `O=C(CSc1nc2ccccc2n1C(F)F)c1ccc(Cl)cc1`, which “activity change, negative = inhibition” value is on record?
**A.** inactive: -15.7%

**Q.** `COc1ccccc1-c1nc2c3ccccc3nc(=S)n2[nH]1` was tested. Which Potency did it give?
**A.** inconclusive: 31.6 µM [inhibitor, partial curve]

**Q.** With `CCOC(=O)C1=C(N)Oc2cc(O)ccc2C1c1ccc(Br)cc1` (centres undefined) as the molecule, how does the Potency read?
**A.** active: 25.1 µM and inconclusive: 31.6 µM [inhibitor, single point]

**Q.** Which “activity change, negative = inhibition” value does the source give for `O=C1CCC(C(=O)OCc2c(Cl)cccc2Cl)N1` (centres undefined) here?
**A.** inactive: -2.53%

**Q.** Which Potency does the source give for `Cc1cn2c(=O)cc(CN3CC[C@@](C)(O)[C@@H](O)C3)nc2s1` here?
**A.** inconclusive: 17.8 µM [inhibitor, full curve, poor fit]

**Q.** `CN(c1ccccc1)S(=O)(=O)c1ccc(NC(=O)c2ccccc2C(=O)O)cc1` was tested. Which Potency did it give?
**A.** inconclusive: 39.8 µM [inhibitor, single point]

**Q.** Which Potency does the source give for `Clc1cccc(Cl)c1Cn1nnc(N2CCCC2)n1` here?
**A.** inconclusive: 126 µM [inhibitor, single point]

**Q.** Which Potency does the source give for `CSCC[C@H](NC(=O)Cc1c(C)c2c(cc(C)c3c(C)coc32)oc1=O)C(=O)O` here?
**A.** inconclusive: 141 µM [inhibitor, single point]

**Q.** `O=C(N/N=C\c1ccc(Br)o1)C1COc2ccccc2O1` (centres undefined) was tested. Which “activity change, negative = inhibition” value did it give?
**A.** inactive: -17.3%

**Q.** `COc1ccc(CN(C)S(=O)(=O)c2ccc3c(c2)OCCCO3)cc1OC` was tested. Which Potency did it give?
**A.** inconclusive: 100 µM [inhibitor, single point]

**Q.** `CSc1nc2c(cnn2-c2ccc(C)c(C)c2)c(=O)[nH]1` was tested. Which “activity change, negative = inhibition” value did it give?
**A.** inactive: -6.22%

**Q.** For `Cc1cc(Br)ccc1NC(=O)CN(C)C(=O)CSC(=S)N1CCCC1`, which Potency is on record?
**A.** inconclusive: 89.1 µM [inhibitor, single point]

**Q.** `C(/CCc1ccccc1)=N\Nc1nc2ccccc2[nH]1` was tested. Which Potency did it give?
**A.** inconclusive: 63.1 µM [inhibitor, partial curve, poor fit]

**Q.** For `O=C1C(C=NCc2ccncc2)=C(O)c2ccccc21`, which “activity change, negative = inhibition” value is on record?
**A.** inactive: 4.54%

**Q.** With `COc1cccc(NC(=O)C2C3C=CC4(O3)C2C(=O)N(CCCN2CCCC(C)C2)C4C(=O)NC2CCCCC2C)c1` (centres undefined) as the molecule, how does the Potency read?
**A.** inconclusive: 3.98 µM [inhibitor, full curve]

**Q.** `CCCn1nc(C(=O)NC(C)c2ccc(S(N)(=O)=O)cc2)c2ccccc2c1=O` (centres undefined) was tested. Which “activity change, negative = inhibition” value did it give?
**A.** inactive: 13.7%

**Q.** For `Cc1ccc(N2C(=O)c3ccccc3NC23CCSC3)cc1` (centres undefined), which Potency is on record?
**A.** inconclusive: 44.7 µM [inhibitor, partial curve, poor fit]

**Q.** `CCn1c(O)c(C2=NCCCC2)c2ccccc21` was tested. Which Potency did it give?
**A.** inconclusive: 1.78 µM [inhibitor, full curve, poor fit]

**Q.** With `Cc1c(C(=O)NCc2ccco2)oc2ccc(Br)cc12` as the molecule, how does the Potency read?
**A.** inconclusive: 89.1 µM [inhibitor, single point]

**Q.** How did the “activity change, negative = inhibition” value turn out when `CCOc1ccccc1NC(=O)c1ccc(NC(=O)C2CCCO2)cc1` (centres undefined) was run?
**A.** inactive: -0.222%

**Q.** With `O=C1NC(=S)SC1=C1CCCCCC1` as the molecule, how does the Potency read?
**A.** inconclusive: 39.8 µM [inhibitor, partial curve, poor fit]

**Q.** `Cc1ccc2c(-c3oc4ccccc4c3NC(=O)C3CC3)cc(=O)oc2c1C` was tested. Which Potency did it give?
**A.** inconclusive: 31.6 µM [inhibitor, single point]

**Q.** `CCOc1cc(C2C(C(=O)c3ccc(C)o3)=C(O)C(=O)N2CCc2ccccc2)ccc1O` (centres undefined) was tested. Which Potency did it give?
**A.** active: 8.91 µM

**Q.** Which “activity change, negative = inhibition” value does the source give for `CC1C/C(=N/NC(=O)c2ccccc2)CC(C)(C)C1` (centres undefined) here?
**A.** inactive: 8.55%

**Q.** Which “activity change, negative = inhibition” value does the source give for `COc1ccc(NCc2nnc(SCC(=O)Nc3ccc(OC)cc3)n2C)cc1` here?
**A.** inactive: -4.27%

**Q.** With `Nc1nc(-c2cccs2)c(NC(=O)c2ccccc2)s1` as the molecule, how does the Potency read?
**A.** inconclusive: 5.01 µM [inhibitor, full curve]

**Q.** Which “activity change, negative = inhibition” value does the source give for `O=C(NN=C1CCCCCC1)c1cn(-c2ccccc2)nc1-c1ccccc1` here?
**A.** inactive: 9.72%

**Q.** `Cc1cc2oc(=O)cc(CN(C)Cc3cccc(F)c3)c2cc1Cl` was tested. Which Potency did it give?
**A.** inconclusive: 5.62 µM [inhibitor, partial curve, poor fit]

**Q.** How did the Potency turn out when `CC1=C(C(=O)N2CCOCC2)CC(CC(=O)NCc2cccs2)C(=O)N1Cc1ccccc1` (centres undefined) was run?
**A.** inconclusive: 44.7 µM [inhibitor, partial curve, poor fit]

**Q.** With `CC(C)(CNC(=O)C1CC2CCC1C2)CNC(=O)C1CC2CCC1C2` (centres undefined) as the molecule, how does the “activity change, negative = inhibition” value read?
**A.** inactive: -30.4%

**Q.** With `CCOC(=O)c1c(C)oc2ncnc(Nc3ccc(CC)cc3)c12` as the molecule, how does the “activity change, negative = inhibition” value read?
**A.** inactive: -19.3%

**Q.** Which Potency does the source give for `COc1ccc(NC(=S)N=Nc2c(O)[nH]c3ccccc23)cc1` here?
**A.** inconclusive: 44.7 µM [inhibitor, partial curve, poor fit]

**Q.** `CCOc1cc(/C=C/C(=O)c2ccc3c(c2)OCCO3)ccc1OCC(=O)N(C)C` was tested. Which “activity change, negative = inhibition” value did it give?
**A.** inactive: -5.19%

**Q.** For `COC(=O)CCC(=O)N[C@H]1CO[C@H]2[C@@H]1OC[C@H]2OCc1ccccc1`, which “activity change, negative = inhibition” value is on record?
**A.** inactive: 20.1% [at 176 µM]

**Q.** For `CC1(C)CC(=O)C2=C(C1)OC(N)=C(C#N)C2c1cn(-c2ccccc2)nc1-c1ccc(F)cc1` (centres undefined), which Potency is on record?
**A.** inconclusive: 50.1 µM [inhibitor, partial curve, poor fit]

**Q.** For `COCCn1c(=O)c2sccc2n(CC(=O)NC2CCCCC2)c1=O`, which “activity change, negative = inhibition” value is on record?
**A.** inactive: -6.34%

**Q.** With `CN(C)CCCN1c2ccccc2Sc2ccc(Cl)cc21` as the molecule, how does the Potency read?
**A.** inconclusive: 50.1 µM [inhibitor, partial curve, poor fit] and inconclusive: 44.7 µM [inhibitor, partial curve, poor fit] and inconclusive: 39.8 µM [inhibitor, partial curve, poor fit]

**Q.** For `CCN(C[C@H]1N[C@@](C)(C(=O)OC)[C@H]2C(=O)N(Cc3ccccc3)C(=O)[C@@H]12)S(=O)(=O)c1ccc(F)cc1`, which Potency is on record?
**A.** inconclusive: 39.8 µM [inhibitor, partial curve, poor fit]

**Q.** `CC1CCC(NC(=O)c2cccc(C#N)c2)CC1` (centres undefined) was tested. Which Potency did it give?
**A.** inconclusive: 39.8 µM [inhibitor, single point]

**Q.** How did the Potency turn out when `COc1ccc(Cc2c(-c3ccc(C)cc3)nc3c(C)cc(Br)cn23)c(C)c1` was run?
**A.** inconclusive: 100 µM [inhibitor, single point]

**Q.** For `CCC(CO)Oc1cc(NCc2cccc(O)c2)c2ncn(C(C)C)c2c1` (centres undefined), which “activity change, negative = inhibition” value is on record?
**A.** inactive: -6.7%

**Q.** `CCNC(=S)Nc1ccc2c(c1)c(=O)n(C)n2Cc1cccc(C(F)(F)F)c1` was tested. Which Potency did it give?
**A.** inconclusive: 35.5 µM [inhibitor, partial curve, poor fit]

**Q.** How did the Potency turn out when `CC1CCC2(CC1)NC(=O)N(CC(=O)Nc1cccc(S(=O)(=O)N(C)c3ccccc3)c1)C2=O` (centres undefined) was run?
**A.** inconclusive: 79.4 µM [inhibitor, single point]

**Q.** `Cc1cc2n(n1)SC(Nc1ccc(F)cc1)N2` (centres undefined) was tested. Which Potency did it give?
**A.** inconclusive: 0.501 µM [inhibitor, full curve, poor fit]

**Q.** With `Cc1cccc(N=N/C(=C\O)C(=O)c2cccs2)c1` as the molecule, how does the Potency read?
**A.** inconclusive: 44.7 µM [inhibitor, partial curve, poor fit]

**Q.** For `CC1(C(=O)NS(=O)(=O)c2cccs2)CCN1C(=O)c1cccc(F)c1` (centres undefined), which Potency is on record?
**A.** inconclusive: 50.1 µM [inhibitor, partial curve, poor fit]

**Q.** Which Potency does the source give for `COc1ccccc1C(=O)N1CCC2(CC1)COc1ccccc1[S+](=O)([O-])N2` here?
**A.** inconclusive: 1.41 µM [inhibitor, full curve, poor fit]

**Q.** With `Cc1sc2nc(SCC(=O)Nc3cccc(C(=O)O)c3)[nH]c(=O)c2c1C` as the molecule, how does the Potency read?
**A.** inconclusive: 44.7 µM [inhibitor, partial curve, poor fit]

**Q.** With `COc1ccccc1CCC(=O)N1CC(F)(F)C[C@H]1c1nc(C)no1` as the molecule, how does the “activity change, negative = inhibition” value read?
**A.** inactive: 44.9%
